Measured values as given in the supplement of paper PMC4683952.
The list shows a part of the results. No stated cut-off is given here; in the data, active = 2 or more and inactive = the rest. This data set is noisy: repeats of one test often differ as much as different tests do.

What follows are compounds tested on Lgr5 (MarsCy1-Lgr5-EGFP, U2OS) (assay: cell-surface Lgr5 expression (SCi1 fluorescence, background-subtracted) relative to WT DMSO (fold of DMSO control); higher = more Lgr5 at the plasma membrane). Conditions: U2OS MarsCy1-Lgr5-EGFP stable; treatment time: overnight; library: ActiProbe-5K (TimTec); 25 µM.

| SMILES | cell-surface Lgr5 expression |
| --- | --- |
| N#CC1=C(N)Oc2ncnc(O)c2C1c1ccsc1 (stereo not given) | inactive: 1.3 |
| O=[N+]([O-])c1ccc(F)c(C(F)(F)F)c1 | inactive: 1.49 |
| COc1cc2nc(N3CCN(c4nc(N)c5cc(OC)c(OC)cc5n4)CC3)nc(N)c2cc1OC | inactive: 1.69 |
| CC(C)(C)c1cc(CSCc2cc(C(C)(C)C)cc(C(C)(C)C)c2)cc(C(C)(C)C)c1 | inactive: 1.26 |
| N#Cc1c(SCCN2CCCC2)nc2c(c1C(F)(F)F)CCCCC2 | inactive: 1.02 |
| C=CCN(CC=C)S(=O)(=O)c1cc(Cl)ccc1Cl | inactive: 1.12 |
| O=C(Cn1nc([N+](=O)[O-])nc1Br)N1CCOCC1 | inactive: 1.35 |
| O=S(=O)(NCCCn1ccnc1)c1cc(Cl)ccc1Cl | inactive: 1.1 |
| Cc1cc(C(=O)N/N=C2\CC(=O)CC(C)(C)C2)[nH]n1 | inactive: 1.34 |
| COC(=O)CSc1ncnc2sc3c(c12)CCCC3 | inactive: 0.845 |
| COC(=O)c1ccn([C@H]2CC(=O)[C@@H]3OC[C@H]2O3)n1 | inactive: 1.01 |
| Fc1cnc(Cl)nc1NC1CCCCC1 | inactive: 1.12 |
| O=C1c2ccccc2C(=O)c2c1c(C(=O)N1CCOCC1)c1ccccn21 | inactive: 1.3 |
| [O-][n+]1c2c(nn1-c1ccccc1)/C(=N/O)CCC2 | inactive: 1.26 |
| CSc1ccc(C2C(C#N)=C(N)SC(N)=C2C#N)cc1 | inactive: 1.43 |
| CSc1nc(-c2ccco2)cc(C(F)(F)F)c1C#N | inactive: 1.08 |
| Cc1cc(S(=O)(=O)N2CCOCC2)c(C)s1 | inactive: 1.36 |
| Cn1ncc(Br)c1C(=O)NN | inactive: 0.964 |
| Cl.c1cc2c(cc1C13CC4CC(CC(C4)C1)C3)c1c3n2CCNC3CCC1 (stereo not given) | inactive: 0.732 |
| Cc1cc(C2CC(=O)OC3=C2C(=O)CC(C)(C)C3)c(C)s1 (stereo not given) | inactive: 1.02 |
| Cn1nnnc1SC(c1ccccc1)c1ccccc1 | inactive: 1.16 |
| O=C(NC1CC1)c1scc2c1OCCO2 | inactive: 1.11 |
| COc1cc(OC)c(/C=N\O)cc1Br | inactive: 0.457 |
| Cc1sc(C)c2c1CCCC2=O | inactive: 1.33 |
| CN(C)S(=O)(=O)N1CCN(c2ccc(F)cc2)CC1 | inactive: 1.05 |
| O=C(O)C1CC(=O)N(CC2CCCO2)C1 (stereo not given) | inactive: 1.34 |
| NCCCc1nc2cc(O)ccc2[nH]1 | inactive: 1.23 |

| SMILES | cell-surface Lgr5 expression |
| --- | --- |
| C1(C[C@H](C(=O)OC)CC([C@](=O)OC)C1)[C@](=O)OC (stereo not given) | inactive: 1.4 |
| NC(=O)CSc1nc2[nH]c(=O)cc(O)c2s1 | inactive: 1.08 |
| COc1cc2c(cc1N)OCO2 | inactive: 1.12 |
| C[C@@H]1CC2(CCCN2)C[C@H]1C.O=C(O)C(=O)O | inactive: 1.14 |
| CC1(C)CNC(=S)NC1 | inactive: 1.07 |
| Br.Nc1ccc(OCCC[n+]2ccc(CCS(=O)(=O)[O-])cc2)cc1 | inactive: 1.04 |
| O=S(=O)(c1ccc(Cl)cc1)N1CCN(c2ccc(N3CCOCC3)nn2)CC1 | inactive: 1.39 |
| S=C(NCC1CCCO1)NC1CCCCC1 (stereo not given) | inactive: 1.19 |
| Cc1ccsc1C1NC(=O)c2c(sc3c2CCCC3)N1 (stereo not given) | inactive: 0.665 |
| COc1cc(Br)c(-c2c(-c3ccc(Cl)cc3)cn3ccc4cc(OC)c(OC)cc4c23)cc1OC | inactive: 0.998 |
| S=C1NCN(CCc2ccccc2)CN1CCc1ccccc1 | inactive: 1.11 |
| C(/C#N)(C#N)=C\Nc1ncc(cc1)Cl | inactive: 0.939 |
| Cc1cc(N)nn1Cn1nc(C(F)(F)F)cc1C | inactive: 1.2 |
| C/C(CC(C)C)=N\Nc1ccc([N+](=O)[O-])cc1[N+](=O)[O-] | inactive: 1.06 |
| O=c1cc(O)c2sc(SCCN3CCOCC3)nc2[nH]1 | inactive: 1.26 |
| C=CCOc1c(Cl)cc(/C=N/n2nnnc2N)cc1OC | inactive: 1.31 |
| Cc1nc(N(C)N)c(C#N)c(C)c1Cl | inactive: 0.699 |
| Cc1nc2nc(S(N)(=O)=O)nn2c(C)c1C | inactive: 1.18 |
| S=C(Nc1cccnc1)Nc1cc(Cl)c(Cl)cc1Cl | inactive: 0.968 |
| O=C(NC1(C(F)(F)F)N=C2SCCN2C1=O)c1ccco1 (stereo not given) | inactive: 1.11 |
| C(=N/c1cccnc1)/c1c[nH]c2ccccc12 | inactive: 1.1 |
| O=C(O)c1cc2[nH]c(=O)cc(-c3ccco3)n2n1 | inactive: 1.09 |
| CC(O)CN(N)C1=NS(=O)(=O)c2ccccc21 (stereo not given) | inactive: 1.31 |
| Oc1ccc(Cl)cc1-c1cc(C(F)(F)C(F)F)no1 | inactive: 0.778 |
| CC(=O)C1=C(C(=O)O)SC2=C(CCCC2)N1 | inactive: 1.15 |
| CN(C)S(=O)(=O)N1CCN(C2c3ccccc3-c3ccccc32)CC1 | inactive: 1.08 |
| O=[N+]([O-])c1ccc(/C=N\c2ccc(Br)cc2)s1 | inactive: 1.91 |

| SMILES | cell-surface Lgr5 expression |
| --- | --- |
| CC(C)(C)c1ccc(-c2nnc(S)n2/N=C/c2ccc(C(F)(F)F)cc2)cc1 | inactive: 0.851 |
| CCCCc1nc2c(sc3nc(C)cc(COC)c32)c(=N)o1 | active: 2.2 |
| COc1ccc(C2NCC(CCl)O2)cc1 (stereo not given) | inactive: 0.952 |
| C=CCC1(O)CC(C)(C)NC(C)(C)C1 | inactive: 0.933 |
| COc1ccc(NC(=O)Nc2cccc(Cl)c2)cc1 | inactive: 0.802 |
| O=Cc1c[nH]c2ccc(Cl)cc12 | inactive: 0.853 |
| [O-][S+](CCSc1nnnn1-c1ccccc1)c1ccccc1 (stereo not given) | inactive: 1.22 |
| Cc1c(N2C(=O)C(C)SC23C(=O)Nc2ccccc23)c(=O)n(-c2ccccc2)n1C (stereo not given) | inactive: 1.38 |
| O=S(=O)(c1ccccc1)N1CC2c3ccccc3CCN2C1c1ccccc1 (stereo not given) | inactive: 1.29 |
| CCO[C@H]1C=C[C@@H](OC(C)=O)[C@H](COC(C)=O)O1 | inactive: 1.08 |
| CC(=C/CCC1(C(N(C(O1)=O)CC([O-])=O)(O)C)C)/C (stereo not given) | inactive: 1.16 |
| O=c1[nH]c2ccc(S(=O)(=O)N3CCCC3)cc2s1 | inactive: 1.16 |
| O=c1ccc2nc3ccc(O)cc3oc-2c1 | inactive: 0.816 |
| O=C1COc2ccc(Cl)cc2O1 | inactive: 1.07 |
| Cc1c(-c2cc(C(F)(F)C(F)F)[nH]n2)c(O)c([N+](=O)[O-])c(C)c1[N+](=O)[O-] | inactive: 0.933 |
| Cc1ccsc1/C=N/Nc1nnc(C)c(=O)[nH]1 | inactive: 1.28 |
| CCc1sc(/C=C(\C#N)C(N)=S)cc1[N+](=O)[O-] | inactive: 1.72 |
| Nc1nnc(SC2CCCC2)s1 | inactive: 1.06 |
| Br.Cc1cc(C)c(-c2csc(=N)[nH]2)c(C)c1 | inactive: 0.949 |
| Cn1c(-c2ccco2)nn([C@H]2CC(=O)[C@@H]3OC[C@H]2O3)c1=S | inactive: 1.03 |
| N=c1c2c3c(sc2ncn1N)CCCC3 | inactive: 1.22 |
| N#Cc1cc2c(nc1SC/C=C/CSc1nc3c(cc1C#N)CCC3)CCC2 | inactive: 1.1 |
| CN1CC(C(=O)NC23CC4CC(CC(C4)C2)C3)CC1=O (stereo not given) | inactive: 1.25 |
| CS(=O)(=O)N1CCN(C(=O)C23CC4CC(CC(C4)C2)C3)CC1 | inactive: 1.24 |
| O=c1oc2ccccc2cc1C1=NOC(c2ccc3c(c2)OCO3)C1 (stereo not given) | inactive: 1.26 |
| C=CCNc1sc(C(=O)C23CC4CC(CC(C4)C2)C3)c(N)c1C#N | inactive: 1.53 |
| CC12CCC(=O)N1CCCCN2 (stereo not given) | inactive: 1.17 |

| SMILES | cell-surface Lgr5 expression |
| --- | --- |
| O=C(CCC(=O)N/N=C/c1ccc([N+](=O)[O-])s1)N/N=C\c1ccc([N+](=O)[O-])s1 | inactive: 0.98 |
| CCCCSc1nnc(C2CCN(C(=O)OC(C)(C)C)CC2)o1 | inactive: 0.921 |
| CC1(C)CC2(CC(C)(C)NC(=O)N2)NC(=O)N1 | inactive: 0.956 |
| C=CCn1c(-c2ccccc2Cl)nn(C2CCC3OCC2O3)c1=S (stereo not given) | inactive: 0.664 |
| c1ccc(Nc2nc3nonc3nc2Nc2ccccc2)cc1 | inactive: 0.782 |
| COc1ccc(/N=C\c2cccn2-c2ccc(Br)cc2)cn1 | inactive: 0.905 |
| Nc1ccc(N2CCOCC2)c2nonc12 | inactive: 1.4 |
| CCOC(=O)C1=C(C)NC(=O)NC1c1cc(C)sc1C (stereo not given) | inactive: 1.13 |
| O=C1c2ccccc2S(=O)(=O)N1c1c(F)c(F)nc(F)c1F | inactive: 0.974 |
| O=C(CC(=O)C(F)(F)F)c1ccc(Cl)s1 | inactive: 1.16 |
| C1(/C(c2ccccc2C1=O)=O)=C/c1c[nH]c2c1cccc2 | inactive: 1.35 |
| NC(=S)N/N=C\c1cc(Cl)cc(Cl)c1O | inactive: 0.644 |
| COc1cc(-c2nnc(C34CC5CC(C3)CC(n3cnc(Cl)n3)(C5)C4)o2)ccc1OC(F)F | inactive: 0.846 |
| Cn1c(N)c(C(N)=O)sc1=S | inactive: 0.775 |
| Clc1ccc(-c2nnc3cccc(Cl)n23)cc1 | inactive: 1.28 |
| C1CCN(SN2CCCCC2)CC1 | inactive: 1.51 |
| O=C1NC(=O)N2CCCC12 (stereo not given) | inactive: 1.33 |
| O=C(CCC(=O)Nc1nccs1)Nc1nccs1 | inactive: 1.23 |
| CN1CCC(C2COC2(c2ccccc2)c2ccccc2)CC1 (stereo not given) | inactive: 1.24 |
| O=S(=O)(N1CCOCC1)N1CCN(CC(O)COc2ccc3c(c2)CCC3)CC1 (stereo not given) | inactive: 1.02 |
| Cc1ccc(/C=C2/C=CC(=O)O2)o1 | inactive: 1.41 |
| Cc1cc(NC(=O)NC(C)(C)C)no1 | inactive: 1.15 |
| CC(C)c1ccc2c(c1)c1c3n2CCN=C3CCC1.Cl | inactive: 1.14 |
| O=S(=O)(Nc1ccc(Cl)cc1)c1ccc(NS(=O)(=O)c2ccc3c(c2)OCCO3)cc1 | inactive: 0.805 |

Ordered by number of heavy atoms (ascending): part of the list above.

| SMILES | cell-surface Lgr5 expression |
| --- | --- |
| Cn1c(N)c(C(N)=O)sc1=S | inactive: 0.775 |
| NC(=S)N/N=C\c1cc(Cl)cc(Cl)c1O | inactive: 0.644 |
| Nc1ccc(N2CCOCC2)c2nonc12 | inactive: 1.4 |
| C=CCn1c(-c2ccccc2Cl)nn(C2CCC3OCC2O3)c1=S (stereo not given) | inactive: 0.664 |
| O=C(CCC(=O)N/N=C/c1ccc([N+](=O)[O-])s1)N/N=C\c1ccc([N+](=O)[O-])s1 | inactive: 0.98 |
